# Assay results from the supplement of paper PMC8728848.
# Some of the results follow.
# B1: RbmA (Vibrio cholerae), A0A2H4NFB8 (protein)
# chain: MSNFKGSIMNKRHYYLASCLALLFSTASYAEVDCELQPVIEANLSLNQNQLASNGGYISSQLGIRNESCETVKFKYWLSIKGPEGIYFPAKAVVGVDTAQQESDALTDGRMLNVTRGFWVPEYMADGKYTVSLQVVAENGEVFKANQEFVKGGDLNSLPELNGLTIDIKNQFGINSVESTGGFVPFTIDLNNGREGEAKVEFWMTAVGPDGLIIPVHSREKWMIIAGNTFSKVRGINFDKSYPAGEYTINAQVVDIVSGERVEQLMTVVKK
# Assays:
# Assay in all cases: glycan array binding signal (z-score within array); higher = stronger binding
# Conditions in all cases: glycan notation: IUPAC condensed, linker removed
# [1] = biological target: Neu5Ac(a2-3)Gal(b1-3)]Neu5Ac(a2-3)Gal(b1-4)]GlcNAc
# Outline: (§1)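 Columns mapping to the same glycan were averaged after glycan names were converted to IUPAC-condensed notation. The data come from 3228 arrays in the Consortium for Functional Glycomics database, limited to those with an available protein sequence. Binding is reported as a within-array Z-score averaged across arrays of one protein sequence and across linkers.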
# Neu5Ac(a2-3)Gal(b1-4)Glc = biological target: Neu5Ac(a2-3)Gal(b1-4)Glc
# Outline: as §1
# [2] = biological target: Neu5Ac(a2-3)Gal(b1-4)GlcNAc
# Outline: as §1
# [3] = biological target: Neu5Ac(a2-3)Gal(b1-4)GlcNAc(b1-2)Man
# Outline: as §1
# [4] = biological target: Neu5Ac(a2-3)Gal(b1-4)GlcNAc(b1-2)Man(a1-3)[GlcNAc(b1-4)][Neu5Ac(a2-3)Gal(b1-4)GlcNAc(b1-2)Man(a1-6)]Man(b1-4)GlcNAc(b1-4)GlcNAc
# Outline: as §1
# [5] = biological target: Neu5Ac(a2-3)Gal(b1-4)GlcNAc(b1-2)Man(a1-3)[Neu5Ac(a2-3)Gal(b1-4)GlcNAc(b1-2)Man(a1-6)]Man(b1-4)GlcNAc(b1-4)GlcNAc
# Outline: as §1
# [6] = biological target: Neu5Ac(a2-3)Gal(b1-4)GlcNAc(b1-2)Man(a1-3)[Neu5Ac(a2-3)Gal(b1-4)GlcNAc(b1-2)Man(a1-6)]Man(b1-4)GlcNAc(b1-4)[Fuc(a1-6)]GlcNAc
# Outline: as §1
# [7] = biological target: Neu5Ac(a2-3)Gal(b1-4)GlcNAc(b1-2)Man(a1-3)[Neu5Ac(a2-6)Gal(b1-4)GlcNAc(b1-2)Man(a1-6)]Man(b1-4)GlcNAc(b1-4)GlcNAc
# Outline: as §1
# [8] = biological target: Neu5Ac(a2-3)Gal(b1-4)GlcNAc(b1-2)[Neu5Ac(a2-3)Gal(b1-4)GlcNAc(b1-2)]Man(a1-6)[Neu5Ac(a2-3)Gal(b1-4)GlcNAc(b1-2)Man(a1-3)][GlcNAc(b1-4)]Man(b1-4)GlcNAc(b1-4)GlcNAc
# Outline: as §1
# [9] = biological target: Neu5Ac(a2-3)Gal(b1-4)GlcNAc(b1-2)[Neu5Ac(a2-3)Gal(b1-4)GlcNAc(b1-4)]Man(a1-3)[GlcNAc(b1-4)][Neu5Ac(a2-3)Gal(b1-4)GlcNAc(b1-2)[Neu5Ac(a2-3)Gal(b1-4)GlcNAc(b1-6)]Man(a1-6)]Man(b1-4)GlcNAc(b1-4)GlcNAc
# Outline: as §1
# [10] = biological target: Neu5Ac(a2-3)Gal(b1-4)GlcNAc(b1-2)[Neu5Ac(a2-3)Gal(b1-4)GlcNAc(b1-4)]Man(a1-3)[GlcNAc(b1-4)][Neu5Ac(a2-3)Gal(b1-4)GlcNAc(b1-4)Man(a1-6)]Man(b1-4)GlcNAc(b1-4)GlcNAc
# Outline: as §1
# [11] = biological target: Neu5Ac(a2-3)Gal(b1-4)GlcNAc(b1-2)[Neu5Ac(a2-3)Gal(b1-4)GlcNAc(b1-6)]Man(a1-6)[Neu5Ac(a2-3)Gal(b1-4)GlcNAc(b1-2)Man(a1-3)]Man(b1-4)GlcNAc(b1-4)GlcNAc
# Outline: as §1
# [12] = biological target: Neu5Ac(a2-3)Gal(b1-4)GlcNAc(b1-3)Gal
# Outline: as §1
# [13] = biological target: Neu5Ac(a2-3)Gal(b1-4)GlcNAc(b1-3)Gal(b1-3)GlcNAc
# Outline: as §1
# [14] = biological target: Neu5Ac(a2-3)Gal(b1-4)GlcNAc(b1-3)Gal(b1-4)GlcNAc
# Outline: as §1
# [15] = biological target: Neu5Ac(a2-3)Gal(b1-4)GlcNAc(b1-3)Gal(b1-4)GlcNAc(b1-2)Man(a1-3)[Neu5Ac(a2-3)Gal(b1-4)GlcNAc(b1-3)Gal(b1-4)GlcNAc(b1-2)Man(a1-6)]Man(b1-4)GlcNAc(b1-4)GlcNAc
# Outline: as §1
# [16] = biological target: Neu5Ac(a2-3)Gal(b1-4)GlcNAc(b1-3)Gal(b1-4)GlcNAc(b1-3)Gal(b1-4)GlcNAc
# Outline: as §1
# [17] = biological target: Neu5Ac(a2-3)Gal(b1-4)GlcNAc(b1-3)Gal(b1-4)GlcNAc(b1-3)Gal(b1-4)GlcNAc(b1-2)Man(a1-3)[Neu5Ac(a2-3)Gal(b1-4)GlcNAc(b1-3)Gal(b1-4)GlcNAc(b1-3)Gal(b1-4)GlcNAc(b1-2)Man(a1-6)]GalNAc
# Outline: as §1
# [18] = biological target: Neu5Ac(a2-3)Gal(b1-4)GlcNAc(b1-3)Gal(b1-4)GlcNAc(b1-3)GalNAc
# Outline: as §1
# [19] = biological target: Neu5Ac(a2-3)Gal(b1-4)GlcNAc(b1-3)Gal(b1-4)GlcNAc(b1-3)[Neu5Ac(a2-3)Gal(b1-4)GlcNAc(b1-3)Gal(b1-4)GlcNAc(b1-6)]GalNAc
# Outline: as §1
# [20] = biological target: Neu5Ac(a2-3)Gal(b1-4)GlcNAc(b1-3)Gal(b1-4)GlcNAc(b1-6)[Gal(b1-3)]GalNAc
# Outline: as §1
# [21] = biological target: Neu5Ac(a2-3)Gal(b1-4)GlcNAc(b1-3)Gal(b1-4)[Fuc(a1-3)]GlcNAc
# Outline: as §1
# [22] = biological target: Neu5Ac(a2-3)Gal(b1-4)GlcNAc(b1-3)GalNAc
# Outline: as §1
# [23] = biological target: Neu5Ac(a2-3)Gal(b1-4)GlcNAc(b1-3)[Neu5Ac(a2-3)Gal(b1-4)GlcNAc(b1-6)]GalNAc
# Outline: as §1
# [24] = biological target: Neu5Ac(a2-3)Gal(b1-4)GlcNAc(b1-6)GalNAc
# Outline: as §1
# [25] = biological target: Neu5Ac(a2-3)Gal(b1-4)GlcNAc(b1-6)[Gal(b1-3)]GalNAc
# Outline: as §1
# [26] = biological target: Neu5Ac(a2-3)Gal(b1-4)GlcNAc(b1-6)[Neu5Ac(a2-3)Gal(b1-3)]GalNAc
# Outline: as §1
# [27] = biological target: Neu5Ac(a2-3)Gal(b1-4)GlcNAc6S
# Outline: as §1
# [28] = biological target: Neu5Ac(a2-3)Gal(b1-4)[Fuc(a1-3)]GlcNAc
# Outline: as §1
# [29] = biological target: Neu5Ac(a2-3)Gal(b1-4)[Fuc(a1-3)]GlcNAc(b1-2)Man
# Outline: as §1
# [30] = biological target: Neu5Ac(a2-3)Gal(b1-4)[Fuc(a1-3)]GlcNAc(b1-3)Gal
# Outline: as §1
# [31] = biological target: Neu5Ac(a2-3)Gal(b1-4)[Fuc(a1-3)]GlcNAc(b1-3)Gal(b1-4)GlcNAc
# Outline: as §1
# [32] = biological target: Neu5Ac(a2-3)Gal(b1-4)[Fuc(a1-3)]GlcNAc(b1-3)Gal(b1-4)[Fuc(a1-3)]GlcNAc(b1-3)Gal(b1-4)[Fuc(a1-3)]GlcNAc
# Outline: as §1
# [33] = biological target: Neu5Ac(a2-3)Gal(b1-4)[Fuc(a1-3)]GlcNAc(b1-3)GalNAc
# Outline: as §1
# [34] = biological target: Neu5Ac(a2-3)Gal(b1-4)[Fuc(a1-3)]GlcNAc(b1-6)[Gal(b1-3)]GalNAc
# Outline: as §1
# [35] = biological target: Neu5Ac(a2-3)Gal(b1-4)[Fuc(a1-3)]GlcNAc(b1-6)[Neu5Ac(a2-3)Gal(b1-3)]GalNAc
# Outline: as §1
# [36] = biological target: Neu5Ac(a2-3)Gal(b1-4)[Fuc(a1-3)]GlcNAc6S
# Outline: as §1
# [37] = biological target: Neu5Ac(a2-3)Gal6S(b1-4)GlcNAc
# Outline: as §1
binder,measurement,setting,value
B1,glycan array binding signal (z-score),[1],-0.113
same,glycan array binding signal (z-score),Neu5Ac(a2-3)Gal(b1-4)Glc,-0.613
same,glycan array binding signal (z-score),[2],-0.847
same,glycan array binding signal (z-score),[3],3.52
same,glycan array binding signal (z-score),[4],-1.01
same,glycan array binding signal (z-score),[5],0.712
same,glycan array binding signal (z-score),[6],1.49
same,glycan array binding signal (z-score),[7],-0.395
same,glycan array binding signal (z-score),[8],-0.452
same,glycan array binding signal (z-score),[9],1.66
same,glycan array binding signal (z-score),[10],2.63
same,glycan array binding signal (z-score),[11],0.163
same,glycan array binding signal (z-score),[12],0.04
same,glycan array binding signal (z-score),[13],-0.862
same,glycan array binding signal (z-score),[14],0.402
same,glycan array binding signal (z-score),[15],-0.354
same,glycan array binding signal (z-score),[16],-0.749
same,glycan array binding signal (z-score),[17],0.862
same,glycan array binding signal (z-score),[18],0.248
same,glycan array binding signal (z-score),[19],-0.228
same,glycan array binding signal (z-score),[20],-0.096
same,glycan array binding signal (z-score),[21],-0.402
same,glycan array binding signal (z-score),[22],-0.626
same,glycan array binding signal (z-score),[23],0.017
same,glycan array binding signal (z-score),[24],-0.174
same,glycan array binding signal (z-score),[25],-0.604
same,glycan array binding signal (z-score),[26],-0.282
same,glycan array binding signal (z-score),[27],3
same,glycan array binding signal (z-score),[28],-0.877
same,glycan array binding signal (z-score),[29],0.266
same,glycan array binding signal (z-score),[30],-0.658
same,glycan array binding signal (z-score),[31],-0.327
same,glycan array binding signal (z-score),[32],2.66
same,glycan array binding signal (z-score),[33],3.93
same,glycan array binding signal (z-score),[34],-0.351
same,glycan array binding signal (z-score),[35],0.142
same,glycan array binding signal (z-score),[36],-0.009
same,glycan array binding signal (z-score),[37],-0.128

# 3 entries from above, with bars between the fields.
binder | measurement | setting | value
B1 | glycan array binding signal (z-score) | [11] | 0.163
same | glycan array binding signal (z-score) | [30] | -0.658
same | glycan array binding signal (z-score) | [37] | -0.128
